# In the supplement of paper PMC4604168 (melanoma cell lines):
# This is one part of the list. Repeats are few or missing, and single values can be far off.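 The apoptosis fraction was the count of cleaved-PARP antibody-stained nuclei relative to all DNA-stained nuclei, imaged in 1,536-well plates. Screening doses were set so most cells survived, and baseline and induced cleaved-PARP levels vary greatly across cell lines.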
# Test system: C32
# Experiment: cleaved PARP positive nuclei fraction relative to DMSO control; melanoma cells; higher = more apoptosis
# Details: library dose: low library concentration; 72 h
row,Compound,cleaved PARP positive nuclei fraction
1,"Cc1cc(SCc2sc(-c3ccc(C(F)(F)F)c(F)c3)nc2C)ccc1OCC(=O)O + c1cc(-c2cnn3cc(-c4ccc(OCCN5CCCCC5)cc4)cnc23)ccn1 [Dorsomorphin] (first compound 2 µM, partner dose 0.4 µM)",201%
2,"C#Cc1cccc(Nc2ncnc3cc(OCCOC)c(OCCOC)cc23)c1 [erlotinib] + C/C(O)=C(\C#N)C(=O)Nc1cc(Br)ccc1Br [LFM-A13] (first compound 0.8 µM, partner dose 2 µM)",83.6%
3,"C/C(O)=C(\C#N)C(=O)Nc1cc(Br)ccc1Br + O=c1cc(-c2cccc3c2Sc2ccccc2S3)oc(N2CCOCC2)c1 [KU55933] (first compound 2 µM, partner dose 1 µM)",128%
4,"Cc1cc(SCc2sc(-c3ccc(C(F)(F)F)c(F)c3)nc2C)ccc1OCC(=O)O + Oc1cc(-c2nc(-c3ccccc3)[nH]c2-c2ccncc2)ccc1Cl [L779450] (first compound 2 µM, partner dose 0.2 µM)",144%
5,"O=C(Nc1cccc(Cl)c1)Nc1ncc(CCNc2ncnc3ccsc23)s1 + O=C(Oc1ccc([N+](=O)[O-])cc1)N1CCC(C(O)(c2ccc3c(c2)OCO3)c2ccc3c(c2)OCO3)CC1 [JZL184] (first compound 0.0008 µM, partner dose 1 µM)",61.8%
6,"COc1ccc(-c2ccc3c(N4CCOCC4)nc(N4C[C@@H](C)O[C@@H](C)C4)nc3n2)cc1CO + O=C(Oc1ccc([N+](=O)[O-])cc1)N1CCC(C(O)(c2ccc3c(c2)OCO3)c2ccc3c(c2)OCO3)CC1 [JZL184] (first compound 0.02 µM, partner dose 1 µM)",149%
7,"Cc1nc(Nc2ncc(C(=O)Nc3c(C)cccc3Cl)s2)cc(N2CCN(CCO)CC2)n1 [dasatanib] + C/C(O)=C(\C#N)C(=O)Nc1cc(Br)ccc1Br [LFM-A13] (first compound 0.004 µM, partner dose 2 µM)",170%
8,"COCC[n+]1c2c(n(Cc3cnccn3)c1C)C(=O)c1ccccc1C2=O + Cc1cc(SCc2sc(-c3ccc(C(F)(F)F)c(F)c3)nc2C)ccc1OCC(=O)O [GW0742] (first compound 0.0004 µM, partner dose 2 µM)",46.1%
9,"COc1cc(N2CCC(N3CCN(C)CC3)CC2)ccc1Nc1ncc(Cl)c(Nc2ccccc2S(=O)(=O)C(C)C)n1 + O=C(Oc1ccc([N+](=O)[O-])cc1)N1CCC(C(O)(c2ccc3c(c2)OCO3)c2ccc3c(c2)OCO3)CC1 [JZL184] (first compound 0.08 µM, partner dose 1 µM)",88.2%
10,"NCC(=O)Nc1ccc(-n2nc(C(F)(F)F)cc2-c2ccc3c(ccc4ccccc43)c2)cc1 + Cc1cc(SCc2sc(-c3ccc(C(F)(F)F)c(F)c3)nc2C)ccc1OCC(=O)O [GW0742] (first compound 1 µM, partner dose 2 µM)",44.2%
11,"C/C(O)=C(\C#N)C(=O)Nc1cc(Br)ccc1Br + Cn1cc(/C=C2\C(=O)Nc3cccnc32)c2ccccc21 [GW441756] (first compound 2 µM, partner dose 0.4 µM)",137%
12,"C[As](C)SC[C@H](NC(=O)CC[C@H](N)C(=O)O)C(=O)NCC(=O)O [Darinaparsin] + c1cc(-c2cnn3cc(-c4ccc(OCCN5CCCCC5)cc4)cnc23)ccn1 [Dorsomorphin] (first compound 0.4 µM, partner dose 0.4 µM)",97.3%
13,"CCc1ccc(CCOc2ccc(CC3SC(=O)NC3=O)cc2)nc1 (stereo not given) [pioglitazone] + C/C(O)=C(\C#N)C(=O)Nc1cc(Br)ccc1Br [LFM-A13] (first compound 2 µM, partner dose 2 µM)",169%
14,"Nc1cccc2c1CN(C1CCC(=O)NC1=O)C2=O (stereo not given) [lenalidomide] + Cc1cc(SCc2sc(-c3ccc(C(F)(F)F)c(F)c3)nc2C)ccc1OCC(=O)O [GW0742] (first compound 1 µM, partner dose 2 µM)",138%
15,"Cc1cc(SCc2sc(-c3ccc(C(F)(F)F)c(F)c3)nc2C)ccc1OCC(=O)O + CC(C)CCN1c2nc(Nc3cc(F)c(O)c(F)c3)ncc2N(C)C(=O)C1C [BID1870] (first compound 2 µM, partner dose 0.2 µM)",41.4%
16,"C[As](C)SC[C@H](NC(=O)CC[C@H](N)C(=O)O)C(=O)NCC(=O)O [Darinaparsin] + COc1cc2ncnc(Nc3ccc(Oc4ccccc4)cc3)c2cc1OC [SrcI1] (first compound 0.4 µM, partner dose 2 µM)",100%
17,"COc1ccc(-c2ccc3c(N4CCOCC4)nc(N4C[C@@H](C)O[C@@H](C)C4)nc3n2)cc1CO + Cc1cc(SCc2sc(-c3ccc(C(F)(F)F)c(F)c3)nc2C)ccc1OCC(=O)O [GW0742] (first compound 0.02 µM, partner dose 2 µM)",44.7%
18,"O=S(=O)(c1ccccc1)N(CC(F)(F)F)c1ccc(C(O)(C(F)(F)F)C(F)(F)F)cc1 + C/C(O)=C(\C#N)C(=O)Nc1cc(Br)ccc1Br [LFM-A13] (first compound 1.4 µM, partner dose 2 µM)",155%
19,"O=C(O)c1ccc(-c2c[nH]c3ncc(-c4ccccc4)cc23)cc1C1CCCC1 + O=C(Oc1ccc([N+](=O)[O-])cc1)N1CCC(C(O)(c2ccc3c(c2)OCO3)c2ccc3c(c2)OCO3)CC1 [JZL184] (first compound 0.16 µM, partner dose 1 µM)",75.1%
20,"Cn1nnc2c(C(N)=O)ncn2c1=O [temozolomide] + O=C(Oc1ccc([N+](=O)[O-])cc1)N1CCC(C(O)(c2ccc3c(c2)OCO3)c2ccc3c(c2)OCO3)CC1 [JZL184] (first compound 2 µM, partner dose 1 µM)",68.3%
21,"Cc1cc(SCc2sc(-c3ccc(C(F)(F)F)c(F)c3)nc2C)ccc1OCC(=O)O + COc1cc(N2CCC(N3CCN(C)CC3)CC2)ccc1Nc1ncc(Cl)c(Nc2ccccc2S(=O)(=O)C(C)C)n1 [NVP-TAE684] (first compound 2 µM, partner dose 0.08 µM)",112%
22,"CCN(CC)CCCCNc1ncc2cc(-c3cc(OC)cc(OC)c3)c(NC(=O)NC(C)(C)C)nc2n1 + C/C(O)=C(\C#N)C(=O)Nc1cc(Br)ccc1Br [LFM-A13] (first compound 0.1 µM, partner dose 2 µM)",119%
23,"CN(NC(=O)CC(=O)NN(C)C(=S)c1ccccc1)C(=S)c1ccccc1 + C/C(O)=C(\C#N)C(=O)Nc1cc(Br)ccc1Br [LFM-A13] (first compound 0.006 µM, partner dose 2 µM)",102%
24,"CCN(CC)CCCCNc1ncc2cc(-c3cc(OC)cc(OC)c3)c(NC(=O)NC(C)(C)C)nc2n1 + Cc1cc(SCc2sc(-c3ccc(C(F)(F)F)c(F)c3)nc2C)ccc1OCC(=O)O [GW0742] (first compound 0.1 µM, partner dose 2 µM)",134%
25,"Cc1cc(SCc2sc(-c3ccc(C(F)(F)F)c(F)c3)nc2C)ccc1OCC(=O)O + Cn1cc(/C=C2\C(=O)Nc3cccnc32)c2ccccc21 [GW441756] (first compound 2 µM, partner dose 0.4 µM)",74.3%
26,"CCN(CC)CCCCNc1ncc2cc(-c3cc(OC)cc(OC)c3)c(NC(=O)NC(C)(C)C)nc2n1 + O=C(Oc1ccc([N+](=O)[O-])cc1)N1CCC(C(O)(c2ccc3c(c2)OCO3)c2ccc3c(c2)OCO3)CC1 [JZL184] (first compound 0.1 µM, partner dose 1 µM)",140%
27,"O=C(Nc1ccccc1)c1cc([N+](=O)[O-])ccc1Cl + O=C(Oc1ccc([N+](=O)[O-])cc1)N1CCC(C(O)(c2ccc3c(c2)OCO3)c2ccc3c(c2)OCO3)CC1 [JZL184] (first compound 2 µM, partner dose 1 µM)",93.7%
28,"Oc1nc(-c2ccc(C(F)(F)F)cc2)nc2c1CSCC2 + O=C(Oc1ccc([N+](=O)[O-])cc1)N1CCC(C(O)(c2ccc3c(c2)OCO3)c2ccc3c(c2)OCO3)CC1 [JZL184] (first compound 2 µM, partner dose 1 µM)",60.6%
29,"C[As](C)SC[C@H](NC(=O)CC[C@H](N)C(=O)O)C(=O)NCC(=O)O [Darinaparsin] + O=c1cc(-c2cccc3c2Sc2ccccc2S3)oc(N2CCOCC2)c1 [KU55933] (first compound 0.4 µM, partner dose 1 µM)",116%
30,"C[As](C)SC[C@H](NC(=O)CC[C@H](N)C(=O)O)C(=O)NCC(=O)O [Darinaparsin] + O=C(O)C(=O)Nc1sc2c(c1C(=O)O)CCNC2 [TCS401] (first compound 0.4 µM, partner dose 1.66667 µM)",54.7%
